This note sets out measurements from patent publication US8110365B2, “Compositions and methods for detecting and treating renal injury and inflammation” (Rhode Island Hospital, priority 2006, dated 2012).

The chains behind the UniProt entries cited, without tags or fusion partners. Where a name states a change or a piece, a line headed by the entry shows the natural chain unless it says otherwise.
UniProt Q04206: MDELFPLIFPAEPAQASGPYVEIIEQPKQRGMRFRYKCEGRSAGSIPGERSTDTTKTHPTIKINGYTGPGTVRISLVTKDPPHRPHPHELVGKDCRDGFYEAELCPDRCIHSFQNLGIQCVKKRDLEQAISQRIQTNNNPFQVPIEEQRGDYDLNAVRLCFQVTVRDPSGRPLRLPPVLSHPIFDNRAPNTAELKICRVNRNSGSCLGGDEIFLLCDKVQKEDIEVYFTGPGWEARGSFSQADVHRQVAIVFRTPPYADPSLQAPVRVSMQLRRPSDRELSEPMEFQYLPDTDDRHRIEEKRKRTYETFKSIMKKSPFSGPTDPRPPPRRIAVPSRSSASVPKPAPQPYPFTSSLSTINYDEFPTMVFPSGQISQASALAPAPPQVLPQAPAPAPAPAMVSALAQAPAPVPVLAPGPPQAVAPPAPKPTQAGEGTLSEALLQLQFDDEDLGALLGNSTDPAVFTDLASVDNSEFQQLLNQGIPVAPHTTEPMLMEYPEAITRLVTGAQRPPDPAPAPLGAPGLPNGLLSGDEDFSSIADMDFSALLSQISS
UniProt P49841: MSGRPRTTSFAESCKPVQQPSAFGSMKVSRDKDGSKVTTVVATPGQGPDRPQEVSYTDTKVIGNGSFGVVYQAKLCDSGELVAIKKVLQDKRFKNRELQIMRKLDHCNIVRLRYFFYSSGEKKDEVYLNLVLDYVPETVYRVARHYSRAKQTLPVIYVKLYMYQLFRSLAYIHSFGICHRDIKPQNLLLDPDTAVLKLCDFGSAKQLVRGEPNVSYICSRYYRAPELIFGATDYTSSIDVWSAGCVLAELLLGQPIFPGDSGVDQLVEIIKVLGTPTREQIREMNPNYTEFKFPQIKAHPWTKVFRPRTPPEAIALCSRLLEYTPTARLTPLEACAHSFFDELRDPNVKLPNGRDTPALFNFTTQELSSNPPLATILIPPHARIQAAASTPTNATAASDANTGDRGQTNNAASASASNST

No constants are given. Whether binding was seen depends on the method and setting. In cells and extracts the contact can be indirect. Some results given as binding are weak or reduced against the parent protein; the word gives no strength.

Test [1] addresses NFkB p65 (RelA/p65), endogenous in HKC cells (human (endogenous in human HKC-8 cells)) (UniProt Q04206). The test is described as follows: co-immunoprecipitation from HKC whole cell lysates (anti-p65 IP, probed for GSK3b).
Test [2] has the same target. The test is described as follows: co-immunoprecipitation from HKC whole cell lysates (anti-GSK3b or anti-p65 IP).
Test [3] has the same target. The test is described as follows: co-immunoprecipitation from transfected HKC cells after TNF-a (anti-p65 IP, probed for HA).

With “Glycogen synthase kinase-3β (GSK3b), endogenous in HKC cells (from UniProt P49841 1-420) (enzyme)”, the binding result in test [1] and in test [2] was “binds” throughout.

With “hemagglutin (HA) conjugated uninhibitable mutant GSK3b (S9A) (from UniProt P49841 1-420) (enzyme)”, the binding result in test [3] was “binds”.

Consider “hemagglutin (HA) conjugated wild type GSK3b (WT) (from UniProt P49841 1-420) (enzyme)”, for which, in test [3], the binding entry is listed as “binds”.
